PubChem BioAssay AID1259266, Sanger Institute | 2017

- Aim: 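Search kinases and colorectal cancer genes for essential genes and drug synergy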 (primary screen)
- System: LS123 human colorectal cancer cells
- Knock-down reagent: siRNA pool against human genes
- Challenge: anchor drugs BYL719 (1 µM), cetuximab (5 µg/ml) or trametinib (10 nM), each chosen to barely slow growth alone; DMSO vehicle as the drug-free arm
- Measured: 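Replicate-averaged viability scaled to non-targeting pools, robust z-score for siRNA alone, and a synergy score per anchor drug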
- Reading the numbers: robust z-score, knock-down alone: higher = more cells surviving after knock-down; viability, knock-down alone: higher = more viable cells
- Units: viability, knock-down alone in fraction of control
- Active means: 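a knock-down counts as essential if its z-score without drug is under -3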
- Calls: active = essential (knock-down alone cuts viability); inactive = no change
The whole screen tested 794 reagents; shown is a random part of them. 16 of all reagents (2%) count as active. 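Calls reflect knock-down alone, not drug synergy; viability seems capped at 1 and z-scores at 0.585.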 Not all columns of the deposit are shown. Not given: the amount of reagent, the time to read-out.

The first 3 records as a preview:
SMAD4
- robust z-score, knock-down alone: 0.585
- viability, knock-down alone: 1
- outcome: inactive

DAPK3
- robust z-score, knock-down alone: -0.188
- viability, knock-down alone: 0.954
- outcome: inactive

PTGS1
- robust z-score, knock-down alone: -0.651
- viability, knock-down alone: 0.927
- outcome: inactive

Results, repeating the preview:
SMAD4
- robust z-score, knock-down alone: 0.585
- viability, knock-down alone: 1
- outcome: inactive

DAPK3
- robust z-score, knock-down alone: -0.188
- viability, knock-down alone: 0.954
- outcome: inactive

PTGS1
- robust z-score, knock-down alone: -0.651
- viability, knock-down alone: 0.927
- outcome: inactive

PRKY
- robust z-score, knock-down alone: -1.03
- viability, knock-down alone: 0.904
- outcome: inactive

MAP3K2
- robust z-score, knock-down alone: 0.585
- viability, knock-down alone: 1
- outcome: inactive

RFK
- robust z-score, knock-down alone: 0.585
- viability, knock-down alone: 1
- outcome: inactive

DUSP21
- robust z-score, knock-down alone: -0.238
- viability, knock-down alone: 0.951
- outcome: inactive

CDKL4
- robust z-score, knock-down alone: -0.994
- viability, knock-down alone: 0.906
- outcome: inactive

HIPK1
- robust z-score, knock-down alone: 0.585
- viability, knock-down alone: 1
- outcome: inactive

TP53BP1
- robust z-score, knock-down alone: 0.585
- viability, knock-down alone: 1
- outcome: inactive

STK11
- robust z-score, knock-down alone: 0.177
- viability, knock-down alone: 0.976
- outcome: inactive

BLK
- robust z-score, knock-down alone: 0.585
- viability, knock-down alone: 1
- outcome: inactive

RPS6KC1
- robust z-score, knock-down alone: 0.585
- viability, knock-down alone: 1
- outcome: inactive

DLG4
- robust z-score, knock-down alone: -0.00532
- viability, knock-down alone: 0.965
- outcome: inactive

SOS2
- robust z-score, knock-down alone: 0.585
- viability, knock-down alone: 1
- outcome: inactive

PCBP1
- robust z-score, knock-down alone: 0.356
- viability, knock-down alone: 0.986
- outcome: inactive

AK5
- robust z-score, knock-down alone: -0.138
- viability, knock-down alone: 0.957
- outcome: inactive

PI4K2A
- robust z-score, knock-down alone: 0.585
- viability, knock-down alone: 1
- outcome: inactive

IKBKB
- robust z-score, knock-down alone: -0.26
- viability, knock-down alone: 0.95
- outcome: inactive

NAGK
- robust z-score, knock-down alone: -2.37
- viability, knock-down alone: 0.824
- outcome: inactive

PIP5K1C
- robust z-score, knock-down alone: 0.585
- viability, knock-down alone: 1
- outcome: inactive

PIK3CA
- robust z-score, knock-down alone: 0.585
- viability, knock-down alone: 1
- outcome: inactive

BRD4
- robust z-score, knock-down alone: -1.7
- viability, knock-down alone: 0.864
- outcome: inactive

PANK4
- robust z-score, knock-down alone: -2.49
- viability, knock-down alone: 0.818
- outcome: inactive

MTOR
- robust z-score, knock-down alone: 0.585
- viability, knock-down alone: 1
- outcome: inactive

PRKACA
- robust z-score, knock-down alone: 0.585
- viability, knock-down alone: 1
- outcome: inactive

EIF2AK4
- robust z-score, knock-down alone: 0.409
- viability, knock-down alone: 0.99
- outcome: inactive

STK31
- robust z-score, knock-down alone: 0.585
- viability, knock-down alone: 1
- outcome: inactive
